{"source": "patent US12077534B2", "about": "“Aza-heterobicyclic inhibitors of MAT2A and methods of use for treating cancer” (Les Laboratoires Servier SAS, priority 2018, dated 2024)", "key": {"[1]": {"tested_on": "HCT116 MTAP−/−", "assay": "Inhibition of cellular proliferation (Cell Titer Glo), HCT116 MTAP-/-", "settings": "read-out: 4 Day Relative Growth Inhibition (MTAP −/−), 4 days", "method": "(§1) Test compound impact on cancer cell growth was assessed by treating cancer cells with compound for 4 days and then measuring proliferation using an ATP-based cell proliferation readout (Cell Titer Glo, Promega Corporation).\n(§2) In a typical assay an isogenic pair of HCT116 human colon carcinoma cell lines which vary only in MTAP deletion status (HCT116 MTAP+/+ and HCT116 MTAP−/−) were plated in 96-well dishes at appropriate cell density. Following 24 hours, cells were then treated with the candidate MAT2A inhibitor. Prior to addition to cells, the compound was first serially diluted in 100% DMSO, typically as a 3-fold serial dilution starting at 500× top dose with 10 dose points including DMSO only control. […]\n(§3) To measure inhibition of cellular proliferation, cells were allowed to equilibrate to room temperature for 30 minutes, and were then treated with 125 μL of Cell Titer Glo reagent. […] Luminescent signal was then measured using a plate-based luminometer Veritas version 1.9.2 using ATP standard curve to confirm assay reproducibility from run to run. This luminescence measure was converted to a proliferation index by subtracting from each data point the ATP luminescence signal measured from a bank (no cells) well and dividing by the ATP luminescence signal measured in 0.2% DMSO control well adjusted for signal in blank well. […]"}, "[2]": {"tested_on": "HCT116 MTAP+/+", "assay": "Inhibition of cellular proliferation (Cell Titer Glo), HCT116 MTAP+/+", "settings": "read-out: 4 Day Relative Growth Inhibition (MTAP +/+), 4 days", "method": "as §1, §2, §3"}, "[3]": {"tested_on": "MAT2A activity (SAM) in HCT116 cells with deleted MTAP gene", "assay": "Cellular assay of target engagement (SAM) by LC-MS/MS", "assay_type": "cell-based", "settings": "read-out: Cell 72 h SAM Inhibition (MTAP −/−)", "method": "Measurement of MAT2A activity in cells was made by direct quantitation of the abundance of the product of its enzymatic activity, SAM. Cancer cells were treated with candidate MAT2A inhibitors for a suitable incubation period, and the cells were then lysed using a reagent which quenched any further enzyme activity. Soluble metabolites including SAM were collected and SAM itself was directly measured from the lysate using quantitative LC-MS/MS.\nA typical assay was performed using an HCT116 human colon carcinoma cell line which was genetically engineered to delete the MTAP gene (commercially available from Horizon Discovery). This cell line was utilized because it was determined that loss of the MTAP gene predicts sensitivity to MAT2A inhibitors. Cells were plated in 96-well dishes at appropriate cell density. Following 24 hours, cells were then treated with the candidate MAT2A inhibitor. […]\nTo quantitate SAM levels following compound treatment, cells were gently washed once in ammonium carbonate buffer (75 mM at pH 7.4), placed on dry ice, and lysed with metabolite extraction buffer (80% cold methanol and 20% water (v/v) with acetic acid at 1M final concentration with 200 ng/mL deuterated d3-SAM as internal control). […]"}, "[4]": {"biological_target": "MAT2A homodimer (Homo sapiens, UniProt P31153)", "assay": "MAT2A biochemical assay (phosphate release, PiColorLock Gold)", "settings": "read-out: Enzyme Inhibition; recombinant MAT2A homodimer, 60 min pre-incubation, 25° C.", "method": "Mat2A protein was expressed by recombinant baculovirus in SF9 infected cells using the Bac to Bac system cloned into the pFASTBAC1 vector (Invitrogen, Carlsbad, CA). Recombinant MAT2A was isolated from the cell lysate of 150 g of infected cells using HP Ni sepharose column chromatography. Recombinant MAT2A homodimer was eluted with 250 and 500 mM imidazole, and fractions containing MAT2A were identified by sodium dodecyl sulfate polyacrylamide gel electrophoresis and pooled.\nFor determination of the inhibitory potency of compounds against the MAT2A homodimer, protein was diluted to 4 μg/mL in assay buffer (50 mM Tris, pH 8.0, 50 mM KCl, 15 mM MgCl2, 0.3 mM EDTA, 0.005% [w/v] bovine serum albumin [BSA]). Test compound was prepared in 100% dimethyl sulfoxide (DMSO) at 50× the desired final concentration. A 1 μL volume of compound dilution was added to 40 μL of enzyme dilution and the mixture was allowed to equilibrate for 60 minutes at 25° C. The enzymatic assay was initiated by the addition of 10 μL of substrate mix (500 μM ATP, pH 7.0, 400 μM L-methionine in 1× assay buffer), and the mixture was incubated for a further 60 minutes at 25° C. The reaction was halted and the liberated phosphate released by the enzyme in stoichiometric amounts by the production of S-adenosyl methionine (SAM) was measured using the PiColorLock Gold kit (Innova Biosciences, UK). […]"}}, "note": "The structures given here were assigned with low confidence; some may be wrong.", "data": [{"smiles": "Cn1cc2cc(-n3nc4c(C(F)(F)F)cc(OCC(F)F)nc4c(-c4ccc(OC(F)F)cc4)c3=O)ccc2n1", "values": [{"measurement": "IC50", "setting": "[1]", "result": "100 to 1000", "unit": "nM"}, {"measurement": "IC50", "setting": "[2]", "result": "> 1000", "unit": "nM"}, {"measurement": "IC50", "setting": "[3]", "result": "< 100", "unit": "nM"}, {"measurement": "IC50", "setting": "[4]", "result": "< 100", "unit": "nM"}]}]}
